Measurements reported in US20240092756A1, “METHODS AND COMPOSITION FOR KRAS MODIFICATIONS” (2692372 ONTARIO, INC., priority 2020, published 2024).
At least one structure is not confirmed: it was looked up by name or label, or the drawing left a doubt.

Assays:
[1] = molecular target: T1, KRAS G12C (SEQ ID NO:1 or SEQ ID NO:2) (Homo sapiens, UniProt P01116, G12C); test: Intact mass analysis (LC-MS) of covalent modification, KRAS G12C; type: binding; set-up: key: b: KRAS G12C modified; details: intact mass spectrometry; covalent modification of KRAS G12C FL
T1 construct: purchased
Protocol: (§1) The covalent modification of the proteins with the compounds were evaluated using intact mass analysis by liquid chromatography-mass spectrometry instrument (LC-MS/MS).
(§2) The reaction solution (20 μL) was prepared in 96-well plate and contained the protein (2 μM), the compound (100 μM), HEPES buffer (20 mM, pH 8), 2% DMSO, 2% glycerol, and 150 mM NaCl. The reaction was allowed to proceed for 24 h at 25° C. The reaction solution (1 μL) was injected into the LC/MS/MS without any further sample preparation.
(§3) The LC-MS/MS instrument comprises of a Waters G2-XS quadrupole-time of flight (QTof) mass spectrometer and a Waters Acuity I-class Ultra-High Performance Liquid Chromatography (UPLC) system. The I-class UPLC system includes a binary solvent manager (BSM), and an Acquity sample manager (SM). The mobile phase consisted of: A) 0.1% (v/v) formic acid in MilliQ water; B) 0.1% (v/v) formic acid acetonitrile. Gradients were run over 5 min and proceeded as follows: A:B, 85:15, 0.0-0.7 min, 85:15→15:85, 0.7-1.5 min, 10:90, 1.5-4 min, 10:90→85:15, 4-4.5 min, 85:15, 4.5-5 min. The analytical column was a Waters BEH C4 column 1.7 μm (50×1 mm) column with pore sizes of 300 Å. […]
(§4) The spectral deconvolution was performed using UNIFI software (Waters). […] The % modification was calculated as the adduct signal intensity over the total intensities of the protein peaks and the adducts.

[2] = molecular target: KRAS G12C Lite (SEQ ID NO:3) (Homo sapiens, UniProt P01116, C118S/C51S/C80S/G12C/S136P/S39C); test: Intact mass analysis (LC-MS) of covalent modification, KRAS G12C Lite; type: binding; set-up: key: a: KRAS Lite modified; details: intact mass spectrometry
Protocol: as §1, §2, §3, §4

[3] = molecular target: KRAS G12C (Homo sapiens, UniProt P01116, G12C); test: SOS1-catalyzed KRAS coupled nucleotide exchange assay (Alpha technology); type: biochemical; set-up: His; key: A: KRAS G12C bound and modulated; details: inhibition of SOS1 mediated KRAS nucleotide exchange
Protocol: Method I: The inhibition of the SOS1-catalyzed nucleotide exchange activity of KRAS (e.g., KRAS G12C/C118A) was measured using Alpha (Amplified Luminescent Proximity Homogeneous Assay) technology. 20 nM GDP-bound human KRAS (G12C/C118A) protein was incubated with two-fold serially-diluted test compound or DMSO for 5 minutes at ambient temperature in reaction buffer (25 mM HEPES, pH 7.4; 10 mM MgCl2; 0.01% Triton X-100). For all subsequent steps, DTT was added to the reaction buffer at a final concentration of 1 mM. Next, GTP and SOS-1 were added in DTT-reaction buffer at final concentrations of 1.25 mM or 500 nM, respectively, and incubated at RT for 30 minutes. Finally, c-RAF RBD (50 nM final), Alpha glutathione donor beads (PerkinElmer; 20 μg/mL final), and AlphaLISAnickel chelate acceptor beads (PerkinElmer; 20 μg/mL final), all diluted in DTT-reaction buffer, were added. The reaction mixture was incubated at RT for 5 min, and then the plates were read on an EnVision® Multilabel Reader using the AlphaScreen protocol. Luminescence signal was measured at 570 nm following a 180 ms excitation at 680 nm. […]
Method II: Inhibition of the SOS1-catalyzed nucleotide exchange activity of KRAS^G12C was measured using Alpha technology (PerkinElmer). […] Plates were read on a TECAN SPARK® Multiplate Reader. The luminescence signal was measured at 615 nm following excitation at 680 nm. […]

Row | Compound | KRAS G12C Modification [1] | KRAS Lite Modification [2] | KRAS-SOS1 Nucleotide Exchange [3]
1 | O=C(COc1ccc(Cl)cc1Cl)N1CCN(S(=O)(=O)c2c(F)c(F)c(F)c(F)c2F)CC1 [Compound 49A, 2-(2,4-dichlorophenoxy)-1-(4-((perfluorophenyl)sulfonyl)piperazin-1-yl)ethan-1-one] | b | a | 
2 | C[C@H]1CN(Cc2c(F)c(F)c(F)c(F)c2[S+](C)[O-])CCN1c1ncnc2cc(-c3ccccc3F)c(Cl)cc12 (stereo partly drawn) [Compound 46A, 6-chloro-7-(2-fluorophenyl)-4-((2S)-2-methyl-4-(2,3,4,5-tetrafluoro-6-(methylsulfinyl)benzyl)piperazin-1-yl)quinazoline] |  |  | A
